According to the supplement of paper PMC5949888:
Most values lie at the floor of the assay. Slopes are relative: functional sequences can read slightly below zero.

tested on: Saccharomyces cerevisiae PS128 hsf1 delta, HSF1(1-493) fusion; assay: growth estimate (transactivation domain function in HSF1 fusion, heat-shock survival) (a.u. (slope of normalised read count over time)); higher = stronger growth at 37°C, i.e. more transactivation activity; details: library: random library

Substance	growth estimate
SSEPRLGSTNRCDSSDRIPA	< -0.25
SSERIA	< -0.25
SSFQ	< -0.25
SSFRRPGIDRHATYTKGRLP	< -0.25
SSGCNAVKGVYLMVKLRRTG	< -0.25
SSGEAPRLRASPCGQCLKTD	< -0.25
SSGHGW	< -0.25
SSGPY	< -0.25
SSGTAQMWGCHVGHDACTNR	< -0.25
SSGVSKVRLYRISLNVRLNG	< -0.25
SSHHMTALRAHFLKTLSIRQ	< -0.25
SSHSKSTNRRR	< -0.25
SSHSLPWVWGPYHIGQSLFQ	-0.231
SSILCFDDACVRPLVAS	< -0.25
SSKGVRRGIQGSYRGFGNQG	< -0.25
SSLIEFGRG	< -0.25
SSLVSNTLQGIPPWVPPNPQ	< -0.25
SSLVTVISVLNHLLII	< -0.25
SSMLNVGGCSLHRYGRDFGD	< -0.25
SSNGIPDSVT	< -0.25
SSNKV	< -0.25
SSNS	< -0.25
SSPFLAKAPCYGVR	< -0.25
SSPGLRASGTGSSGGKPKEA	-0.25
SSPGLTLAKLVHRGCCLLTC	< -0.25

Substance	growth estimate
SSPSLRSRAE	< -0.25
SSQAGSGRGRATRADSLGAS	< -0.25
SSQTTRSSP	-0.245
SSRCSAGEMPLVVGAARSGV	< -0.25
SSRG	< -0.25
SSRGHRARSSSPGAARTVKF	< -0.25
SSRGVTK	< -0.25
SSRMRAKSWSRGIDVLGGHP	< -0.25
SSRRERRASSIKRNERLSSA	< -0.25
SSRSHALRESQN	< -0.25
SSRSWG	< -0.25
SSRTQ	< -0.25
SSRYGSGNLGIPPEASRFVV	< -0.25
SSSANRTG	< -0.25
SSSDLR	< -0.25
SSSFDLSNLADQMV	< -0.25
SSSFRAEDTANRCCPDIRAS	< -0.25
SSSRPSIINYWNVSHSCSPP	< -0.25
SSSSGPGNS	< -0.25
SSSYVCYAGSVCT	< -0.25
SSTASGIGTPIQQGEMQPPS	< -0.25
SSTKVRCHDAFSGQLP	< -0.25
SSTPVRRGLRTEQFAPA	< -0.25
SSTRDGFNG	< -0.25
SSTSVVRVAGQ	< -0.253

Substance	growth estimate
SSTWAPLSSALLTENLPGGF	< -0.25
SSV	< -0.25
SSVGKVLGIKRVKARPAVTP	< -0.25
SSVQPHGGNSRSWIRLRGRC	< -0.25
SSVVGETELCGVRVLTPLRS	< -0.25
SSVVLGDGLFIGDT	< -0.25
SSVYT	< -0.25
SSWA	< -0.25
SSWDYVRHGAAKMSGATRRI	< -0.25
SSWPDTELLTSVGADRERGA	< -0.25
SSYPEKGQKT	< -0.25
STAARIKVPSRAQCLR	< -0.25
STALRGRALNVNLPTVPLGD	< -0.25
STAPNIGRRLGAYCLLVRMI	< -0.25
STDGCRRINLRMSKMRLSSV	< -0.25
STDLGRDCSLVPVT	< -0.25
STDLGSKIKHASD	< -0.25
STEERSGLQESCIQVFLT	< -0.25
STESSRHRPHARHALTASLT	< -0.25
STFAVPARITMGIRRAKCHV	< -0.25
STFRRVSAYIMYRPRISVVG	< -0.25
STFSPPGIREWQNYHLVPGS	< -0.25
STG	< -0.25
STGAYRIPSCCEPRRFVILA	< -0.25
STGNVNRGWIATPGDVTWRD	< -0.25

Looked up one by one from the list above, 3 records:
Substance	growth estimate
SSWA	< -0.25
STESSRHRPHARHALTASLT	< -0.25
SSVQPHGGNSRSWIRLRGRC	< -0.25

Further entries follow:

Substance	growth estimate
STGVLPD	< -0.25
STH	< -0.25
STI	< -0.25
STIQNL	< -0.25
STISMSGRVEGRKAWYATRV	< -0.25
STKATMPGRTQRIGVRLDSH	< -0.25
STKFDGGDSVR	< -0.25
STKRLLRPFTFPSLTSYCPT	< -0.25
STKVENWGAGSEYTLFCLVS	< -0.25
STL	< -0.25
STLEYRGTDTR	< -0.25
STLGGCPYNCRTWTVIPIGV	< -0.25
STLMRTVECSHRYA	< -0.25
STMWLTRAA	< -0.25
STNVLDRRKDARAIFTDWGP	< -0.25
STPVVP	< -0.25
STQQCYLS	< -0.25
STQSVGRQSRPLALSTQ	-0.246
STRAARLAVNWITEATLPQV	< -0.25
STRC	< -0.25
STRCAWTTNESQRAPRGRYP	< -0.25
STRGAIHNPGPHLRQGLLN	< -0.25
STRIHD	< -0.25
STRPCMGKYGRK	< -0.25
